Patent US8653043B2, “Enhanced neoglycosides through neoglycosylation and methods of use thereof” (Wisconsin Alumni Research Foundation, priority 2009, dated 2014)
Some results were stated once for a whole list of compounds, not compound by compound.

Test system: HIV-1 virus (IIIB strain)
Assay: Anti-HIV-1 cytoprotection (CPE) assay in CEM-SS cells
Assay type: cell-based
Conditions: single dose 10 μM; HIV-1 IIIB-infected CEM-SS cells; six days
Protocol: To assess the corresponding impact of differential glycosylation upon antiviral activity, the entire set of compounds was subsequently tested in a single dose (10 μM) anti-HIV-1 assay against CEM-SS cells (i.e., CD4+ T lymphocytes) infected with the IIIB strain of HIV-1. Compound efficacy was determined by the percent increase of cytoprotective effect (CPE), which is prevention of intercellular virus replication, over untreated HIV-1-infected cells.
Both cells and virus were mixed with compound (10 μM & 1 μM for ABA1-5 and […] for all others) in triplicate in 96-well plates and incubated for six days at 37° C. Compound cytoprotection and cytotoxicity were evaluated using MTS tetrazolium dye (Promega Corp., Madison, Wis.) as previously reported.^23 Each assay plate used the following controls: cells only, cells/virus, cells/compound, compound only. The reverse transcriptase inhibitor AZT and protease inhibitor Indinavir were included as positive controls.

With C=C(C)[C@@H]1CC[C@]2(C(=O)O)CC[C@]3(C)C(CCC4[C@@]5(C)CC[C@H](OC(=O)CN(OC)[C@@H]6O[C@H](C)[C@@H](O)[C@H](O)[C@H]6O)C(C)(C)C5CC[C@]43C)C12 (stereo partly shown) [BA18] the “improvement of cytoprotective effect (CPE) over parent 1” value was no less than 10 fold.
